# Percent effect of library compounds

Source: ChEMBL document CHEMBL3988442, “University of Dundee, Small-Polar-MMV Screening Library” (2021).

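Assay of Toxoplasma gondii numbers, read through their beta-galactosidase reporter with a colour substrate. Tested at 50 µM. The record gives no direction; the compounds picked for IC50 retests had high values, so higher reads as fewer parasites. About 18,000 compounds were tested under these conditions; 0.94% (about 170) showed 50% or more at least once.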

Results are given as percent effect. The controls that fix the scale are not given in the record; negative values are as filed. Compounds were drawn at random from those tested, without regard to their results.

Compound	effect
OCCOCCn1cccn1	-2.327
CC1CCN(CC(=O)NCC2CCCO2)CC1 (centres undefined)	-5.719
CC(=O)N(Cc1ncc(C)o1)C1CCNC1 (centres undefined)	19.89
Cn1ccnc1C(NC(=O)C1CC1)c1cccc(F)c1 (centres undefined)	1.483
CCCS(=O)(=O)NCC(O)Cc1ccccc1 (centres undefined)	-1.731
Cc1ccc(C(=O)N2C[C@@H](CO)[C@H](N(C)C)C2)cc1	0.785
O=C(CCc1ccccc1)N1CCCNCC1	-3.349
CNC(CO)c1cccc(Cl)c1Cl (centres undefined)	-9.997
NS(=O)(=O)CC1CCCN1CCSc1ccccc1 (centres undefined)	-2.17
CC(C)CCC(=O)NCC(=O)NCC(O)C(C)(C)C (centres undefined)	-8.417
CC(O)CS(=O)(=O)N1CCCC1 (centres undefined)	-2.862
CCOCCN1CCN(Cc2cnn(C)c2)CC1C (centres undefined)	-4.314
N#CCCNCC1CCOC1 (centres undefined)	-6.874
CCOC(=O)CNC(=O)Nc1ccc(C#N)cc1	-13.32
NC(=O)C1CCCN(S(=O)(=O)Cc2ccc(Cl)cc2)C1 (centres undefined)	-10.43
Cn1nc(CCN)c2ccccc21	22.75
CS(=O)(=O)c1ccc(NC(=O)N2CCC[C@@H]2CO)cc1	-2.378
C[C@@H]1CN(C(=O)CN(C)Cc2ccccc2)C[C@]1(C)O	1.507
Cc1ccc(S(=O)(=O)NCC(C)N)cc1F (centres undefined)	7.262
Cc1cc(C(=O)N2CCn3cccc3C2C)no1 (centres undefined)	-3.952
Ic1cnn(C2CCNCC2)c1	2.834
OCCC1(NCc2ccc(O)c(Cl)c2)CCOCC1	-7.145
O=C(c1ccc(F)cc1O)N1CCC(CO)C1 (centres undefined)	2.491
Cc1nc(C2CCN(C(=O)c3cn[nH]c3)CC2)no1	-0.4774
Cc1ccnc(NC(=O)[C@@H]2CCCO2)n1	1.872
Cc1nc2ccccc2nc1SCC(=O)NCCCO	5.083
CCOCCC(=O)N1c2ccccc2OCC1C (centres undefined)	-2.365
CCOC(=O)c1cnn(C)c1	3.08
Cn1ccnc1CN(Cc1ccc(CO)o1)C1CC1	7.285
O=C(c1cc(-c2ccco2)on1)N1CCCO1	-9.188
CCC(NC(=O)c1ccc(=O)[nH]c1)c1nc(C)c(C)s1 (centres undefined)	-3.134
CCc1nn2c(=O)cc(CN3CCCC3)nc2s1	24.45
CN(CC(=O)N[C@@H]1COCC[C@H]1O)Cc1ccccn1	-11.98
CN(C1CCNCC1)C1CCOCC1	19.76
CC1=C(C(=O)NCc2cccnc2)C(C)NC(=O)N1 (centres undefined)	-0.3113
CCC(=O)Nc1ccc(Br)cn1	-5.18
CN(C)c1ncc(CN)n1C	-8.306
CC(=O)NCc1cn2c(C)cccc2n1	-3.139
Cc1noc(C)c1CN1CCCC(CNS(C)(=O)=O)C1 (centres undefined)	-13.01
CSCCC(NC(=O)c1ccccc1)C(=O)NC(C)C (centres undefined)	-2.007
OCCC1(NCc2ccc3c(c2)CCO3)CCOCC1	5.464
CN(Cc1cccc(O)c1)S(C)(=O)=O	-8.158
Cc1cccc(CN(C)CC(=O)N(C)C)c1	13.01
COc1ccc(F)c(F)c1CN1CCCC(O)(CO)C1 (centres undefined)	-9.593
CN1CCN(CCS(=O)(=O)c2ccc(Cl)cc2)CC1	42.41
COc1cccc(CN(CCN(C)C)S(C)(=O)=O)c1	-8.236
CC1CN(CC(=O)Nc2ccc(Cl)cn2)CCCO1 (centres undefined)	4.462
O=C(NCc1ccc(Br)o1)[C@@H]1CCCO1	-18.85
CC1(C)COCCN1C(=O)COc1ccc(F)cc1F	11.31
CNC(=O)C(C)(C)CNC(=O)Nc1ccncc1F	-8.861
CC(N)c1nnc2n1CCCC2 (centres undefined)	13.12
CSCC[C@H](N)C(=O)N(C)Cc1ncc(Cl)n1C	-3.024
CNCC1(O)CCCc2ccccc21 (centres undefined)	4.664
Cc1noc(NC(=O)C(C)OCC2CC2)n1 (centres undefined)	0.8481
CN(C)C(=O)CN(C)C(=O)Cc1cccs1	-8.18
OC1(CNc2nc(-c3ccccc3)ns2)CCSC1 (centres undefined)	2.258
Cc1cc(C(=O)N2CCC(O)(CN(C)C)C2)cc(C)n1 (centres undefined)	-17.44
OC(c1ccccn1)C1CCN(Cc2ncc[nH]2)CC1 (centres undefined)	11.72
CCN1CCN(CCCNC(=O)c2cnccn2)CC1	-6.235
CNC(=O)CC1(CN)CCCCC1	-16.08
O=c1cc(CSCCO)c2ccccc2[nH]1	3.137
Cc1c(C=C2C(=O)Nc3ccc(F)cc32)cnn1C	-2.351
Cn1nccc1CCC(=O)NCC1(O)CCCCC1	14.48
Cc1cccc(C(=O)N2CCCN(CCC#N)CC2)c1	8.704
COCCN(CC(=O)NC(N)=O)Cc1ccccc1	8.173
CS(=O)(=O)c1ccccc1CN	26.87
CN1CCC(NCc2ccc3c(c2)OCO3)CC1	1.685
NCC1COc2ccccc21 (centres undefined)	-6.336
Cc1nc2ccc(NC(=O)C(C)(C)S(C)(=O)=O)cn2n1	-10.55
CCn1nc(C(C)C)cc1C(=O)N1CCSCC1	12.44
CN(C)C(=O)C1CCN(Cc2ccccc2F)CC1	-0.8921
Cc1ccccc1OCCCNC(=O)NC[C@@H](C)O	-11.37
O=C(NC1CCCC1)c1cnccn1	54.91
COc1ccc2oc(C(=O)NC(C)C(N)=O)c(C)c2c1 (centres undefined)	0.7497
CCNC(=O)c1cc(C#N)cn1C	-2.057
Cc1c[nH]c(CNC(=O)CCOc2ccccc2)n1	14.54
Cc1ncccc1CN(C)Cc1nccn1C	1.003
COc1ccc(CN2CCC(NC(C)=O)CC2)cc1F	-27.86
Cc1nccn1CCCN1CCC2(C1)CN(C)C(=O)O2 (centres undefined)	5.459
Cc1nn(C)c(C)c1CC(=O)Nc1cccnc1O	-7.304

For reference, 10 entries once more:

Compound	effect
CCOCCC(=O)N1c2ccccc2OCC1C (centres undefined)	-2.365
CCC(=O)Nc1ccc(Br)cn1	-5.18
Cc1cc(C(=O)N2CCn3cccc3C2C)no1 (centres undefined)	-3.952
Ic1cnn(C2CCNCC2)c1	2.834
CN(C)C(=O)CN(C)C(=O)Cc1cccs1	-8.18
O=C(NC1CCCC1)c1cnccn1	54.91
O=C(NCc1ccc(Br)o1)[C@@H]1CCCO1	-18.85
CN(Cc1cccc(O)c1)S(C)(=O)=O	-8.158
CCOCCN1CCN(Cc2cnn(C)c2)CC1C (centres undefined)	-4.314
CN1CCN(CCS(=O)(=O)c2ccc(Cl)cc2)CC1	42.41